PMC9261359
No constants are given. Whether binding was seen depends on the method and setting. In cells and extracts the contact can be indirect. Some entries that bind do so weakly or less than the wild type.

Protein sequences, listed by entry. Tags and fused reporters are not part of them.
UniProt P08670: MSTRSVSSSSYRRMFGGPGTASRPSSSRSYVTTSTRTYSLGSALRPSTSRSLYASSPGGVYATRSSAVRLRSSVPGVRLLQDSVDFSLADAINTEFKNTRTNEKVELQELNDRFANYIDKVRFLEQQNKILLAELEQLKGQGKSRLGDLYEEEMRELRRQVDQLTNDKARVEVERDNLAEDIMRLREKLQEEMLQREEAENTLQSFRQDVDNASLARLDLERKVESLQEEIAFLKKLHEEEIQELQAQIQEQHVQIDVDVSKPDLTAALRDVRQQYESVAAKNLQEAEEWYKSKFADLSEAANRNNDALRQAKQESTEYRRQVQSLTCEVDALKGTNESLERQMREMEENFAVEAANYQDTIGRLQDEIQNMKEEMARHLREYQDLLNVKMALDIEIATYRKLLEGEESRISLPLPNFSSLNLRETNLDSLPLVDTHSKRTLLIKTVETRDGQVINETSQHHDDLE

Biological target: T1, Dectin-1 (human (endogenous in adipose tissue)) (UniProt Q9BXN2)
T1 sequence: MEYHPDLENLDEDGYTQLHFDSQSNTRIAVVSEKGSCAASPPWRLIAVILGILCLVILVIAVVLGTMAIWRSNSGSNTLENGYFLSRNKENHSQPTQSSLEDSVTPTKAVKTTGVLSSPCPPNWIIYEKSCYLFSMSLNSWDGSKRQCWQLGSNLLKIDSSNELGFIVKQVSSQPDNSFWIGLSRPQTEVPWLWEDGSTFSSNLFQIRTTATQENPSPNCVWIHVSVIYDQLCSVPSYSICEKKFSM
Experiment: co-IP; Dectin-1 immunoprecipitated from human adipose tissue of obese individuals; western blot for vimentin

For vimentin (from UniProt P08670 1-466), the binding was “binds”.
